Assay results published in doi:10.1101/2023.09.28.559965.
These are yes or no findings as the source states them, for the method shown. Binding seen in cells or lysates may run through a third protein.

Molecular target: HER2 with eGFP tag, doxycycline-induced in MCF10A-Teti-HER2_GFP cells, P04626
Experiment: co-IP
Conditions: remark: other sources report otherwise

binding: no binding
B1: β-catenin, P35222 1-781 (protein)
chain: MATQADLMELDMAMEPDRKAAVSHWQQQSYLDSGIHSGATTTAPSLSGKGNPEEEDVDTSQVLYEWEQGFSQSFTQEQVADIDGQYAMTRAQRVRAAMFPETLDEGMQIPSTQFDAAHPTNVQRLAEPSQMLKHAVVNLINYQDDAELATRAIPELTKLLNDEDQVVVNKAAVMVHQLSKKEASRHAIMRSPQMVSAIVRTMQNTNDVETARCTAGTLHNLSHHREGLLAIFKSGGIPALVKMLGSPVDSVLFYAITTLHNLLLHQEGAKMAVRLAGGLQKMVALLNKTNVKFLAITTDCLQILAYGNQESKLIILASGGPQALVNIMRTYTYEKLLWTTSRVLKVLSVCSSNKPAIVEAGGMQALGLHLTDPSQRLVQNCLWTLRNLSDAATKQEGMEGLLGTLVQLLGSDDINVVTCAAGILSNLTCNNYKNKMMVCQVGGIEALVRTVLRAGDREDITEPAICALRHLTSRHQEAEMAQNAVRLHYGLPVVVKLLHPPSHWPLIKATVGLIRNLALCPANHAPLREQGAIPRLVQLLVRAHQDTQRRTSMGGTQQQFVEGVRMEEIVEGCTGALHILARDVHNRIVIRGLNTIPLFVQLLYSPIENIQRVAAGVLCELAQDKEAAEAIEAEGATAPLTELLHSRNEGVATYAAAVLFRMSEDKPQDYKKRLSVELTSSLFRTEPMAWNETADLGLDIGAQGEPLGYRQDDPSYRSFHSGGYGQDALGMDPMMEHEMGGHHPGADYPVDGLPDLGHAQDLMDGLPPGDSNQLAWFDTDL
